From patent US20250074942A1 (Calico Life Sciences LLC, priority 2022, published 2025)

Assay: general procedure: Fmoc solid-phase peptide synthesis; Tentagel M NH2 resin (30 μm bead size) with HMPB linker; HATU/DIEA; DIC/DMAP for C-terminal residue
Settings: whole synthesis; for isolated yield: scale of the general procedure 0.72 mmol

Row | Substance | isolated mass [mg] | isolated yield [% yield] | isolated yield (theoretical amount based on synthesis scale, adjusted for crude fraction purified) [% yield]
1 | NH2-4Af-Met-Ala-Ser-Ala-Ala-Cha-Arg-Leu-OH | 7.3 | 39 | –
2 | NH2-4Af-Met-Dff-Ser-Ala-Ala-Cha-Arg-Leu-OH | 4.8 | – | 39
3 | NH2-Ala-Met-hAr-Dff-Tha-Ala-Cha-Arg-Leu-OH | 8.2 | 38 | –
4 | NH2-Cha-hAr-Ala-Leu-hAr-Gln-Met-Mff-hAr-OH | 2.0 | 9 | –
5 | NH2-Cha-hAr-Ala-Leu-hAr-Gln-Nle-Mff-hAr-OH | 15.7 | 18 | –
6 | NH2-hAR-Met-hAR-Gln-Mff-Ala-Cha-hAR-Leu-OH | 7.5 | 31 | –
7 | NH2-hAr-Met-Msn-Dff-Cha-Ala-Arg-Msn-Leu-OH | 8.0 | 20 | –
8 | NH2-hAr-Met-hAr-Gln-Mff-Ala-Cha-hAr-Nle-OH | 1.9 | 6 | –
9 | NH2-hAr-Mox-hAr-Gln-Mff-Ala-Cha-hAr-Leu-OH | 6.1 | 18 | –
10 | NH2-hAr-Nle-hAr-Gln-Mff-Ala-Cha-hAr-Aoa-OH | 9.7 | 29 | –
11 | NH2-hAr-Nle-hAr-Gln-Mff-Ala-Cha-hAr-Cha-OH | 5.9 | 18 | –
12 | NH2-hAr-Nle-hAr-Gln-Mff-Ala-Cha-hAr-Leu-OH | 8.8 | 27 | –
